Measurements from patent US20250152759A1, “SINGLE-DOMAIN ANTIBODIES AND VARIANTS THEREOF AGAINST MET” (Wisconsin Alumni Research Foundation, priority 2023, published 2025).
These are yes or no findings as the source states them, for the method shown. Binding calls can cover weak binding; strength is not graded here.

Experiments:
[1] = biological target: rhesus macaque MET (biotinylated) (rhesus macaque); experiment: dilution ELISA, unpurified VHH on plates coated with rhesus macaque MET
[2] = biological target: rhesus macaque MET (biotinylated) (rhesus macaque); experiment: dilution ELISA, unpurified VHH on coated MET
[3] = biological target: rhesus macaque MET (biotinylated) (rhesus macaque); experiment: ELISA counter screen

binding [1]	binding [2]	binding [3]	Binder
binds	binds	binds	1E7 VHH (VHH) VHH: EVQLVESGGGLVQPGGSLRLSCEASGFNFERYDMSWVRQAPGKGPEWVSRLNSFGRSTYYLDSVKGRFTVSRDNAQNMLYLQMNNLKPEDTAVYYCARSTDVSPGLSSWWTYEYDVWGQGTQVTVSS
binds		binds	1A2 VHH (VHH) VHH: EAQLVESGGGLVQPGGSLRLSCEASGFNFERYDMSWVRQAPGKGPEWVSRLNSFGRSTYYLDSVKGRFTVSRDTAKSTFYLQMNNLKPEDAGVYYCARSTDVSPGLSSWWTYEYDVWGQGTQVTVSS
binds		binds	2G9 VHH (VHH) VHH: EVQLVESGGALVQPGGSLRLSCAASGFTFGAYDMVWVRHATGKGPEWISFISNGGEEVSYASSVKDRFTISRDNAQNMLYLQMNNLKPEDTAVYYCARSTDVSPGLSSWWTYEYDVWGQGTLVTVSS
